No constants are given. Whether binding was seen depends on the method and setting. In cells and extracts the contact can be indirect. A result given as binding can be weak or reduced; the word gives no strength. Sequences can lack the tags named with a protein.
Biological target: AtHSFA1b, nVENUS fusion for BiFC (Arabidopsis thaliana)
Assay: split reporter; BiFC with nVENUS and cCFP fusions co-infiltrated by Agrobacterium GV3101 in N. benthamiana leaves; lower epidermal layer viewed by confocal microscopy

binding: binds
B1: AtIPK2β, cCFP fusion for BiFC (protein, UniProt Q9FLT2 1-300)
chain: MLKVPEHQVAGHIASDGKLGPLVDDQGRFFKPLQGDSRGEHEAKFYESFTSNMKVPDHIHRYFPVYHGTQLVEASDGSGKLPHLVLDDVVSGYANPSVMDVKIGSRTWYPDVSEEYFKKCIKKDRQTTTVSLGFRVSGFKIFDHQESSFWRAEKKLVLGYNADGARLALRKFVSSNSPADSNLTPNCAFASEVYGGCNGILAQLLELKDWFETQTLYHFNSCSILMIYENESILMQGGDDAPAPRAQVKLVDFAHVLDGNGVIDHNFLGGLCSFIKFIKDILQSVEKHDETDTSLLENGR

— PMC12445474, “Conservation of heat stress acclimation by the IPK2-type kinases that control the synthesis of the inositol pyrophosphate 4/6-InsP7 in land plants” (PLOS Genetics, 2025)
